Results reported in PubChem BioAssay AID588590 (National Center for Advancing Translational Sciences (NCATS), 2011).
The whole screen tested about 390,000 compounds, of which about 4,000 (1%) were called active. This list was built around the results that the source calls inconclusive (neither active nor inactive); the mix of calls is not that of the screen. Calls follow the shape of the dose curve; as a rule, active = well fitted inhibition curve with a large enough effect; inconclusive = small, poorly fitted or top-dose-only effect, or another doubt; inactive = no such curve, though single readings can be large or run the other way. Potencies of inconclusive entries are doubtful fits and often do not repeat.

By UniProt entry, the sequences of proteins in these tests, tags left out. Where a name states a change or a piece, a line headed by the entry shows the natural chain unless it says otherwise.
UniProt Q9UNA4: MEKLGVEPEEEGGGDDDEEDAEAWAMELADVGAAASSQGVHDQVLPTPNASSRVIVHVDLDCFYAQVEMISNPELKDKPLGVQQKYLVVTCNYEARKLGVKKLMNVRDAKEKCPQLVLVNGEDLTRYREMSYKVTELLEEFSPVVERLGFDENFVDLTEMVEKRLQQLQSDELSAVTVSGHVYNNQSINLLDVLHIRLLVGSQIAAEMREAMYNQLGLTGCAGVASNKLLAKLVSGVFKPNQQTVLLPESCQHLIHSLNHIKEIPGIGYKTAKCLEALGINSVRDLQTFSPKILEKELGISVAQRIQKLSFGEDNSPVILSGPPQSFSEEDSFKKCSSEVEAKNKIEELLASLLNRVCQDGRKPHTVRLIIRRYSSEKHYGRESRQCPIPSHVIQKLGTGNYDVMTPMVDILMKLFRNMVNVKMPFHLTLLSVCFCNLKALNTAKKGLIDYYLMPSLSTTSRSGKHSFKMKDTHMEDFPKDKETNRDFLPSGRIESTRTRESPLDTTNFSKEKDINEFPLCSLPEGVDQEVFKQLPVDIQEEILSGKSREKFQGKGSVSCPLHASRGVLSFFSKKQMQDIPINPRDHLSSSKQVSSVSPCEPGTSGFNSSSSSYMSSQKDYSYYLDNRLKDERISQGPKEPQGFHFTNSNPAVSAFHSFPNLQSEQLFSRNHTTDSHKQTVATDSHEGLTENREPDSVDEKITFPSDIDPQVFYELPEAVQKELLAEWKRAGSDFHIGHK

target: DNA polymerase iota (Homo sapiens) (UniProt Q9UNA4); assay: qHTS for Inhibitors of Polymerase Iota; details: Pol iota fluorescent replication assay, 10 min; series mostly up to 115 µM; activity, negative = inhibition: at the top concentration
Method in brief: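 Pol iota at 10 nM preincubated 15 min with compounds at room temperature; reaction started with fluorescent substrate, 50 nM final. Fluorescence read kinetically at 0 and 10 min; buffer-only wells as negative control.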
Potency is read from the fitted curve at half-maximal effect.

Row | SMILES | Potency | activity, negative = inhibition
1 | COC(=O)CCCC1=CC2=CC(=O)C(C)(OC(=O)c3cccs3)C(=O)C2=CN1C1CCCC1 (centres undefined) | inconclusive: 56.2 µM [inhibitor, partial curve, poor fit] | –
2 | Cc1ccccc1-c1nnc(SCC(=O)N(C)C2CCCCC2)o1 | inconclusive: 89.1 µM [inhibitor, single point] | –
3 | Cc1cccc(CCNC(=O)CN(c2ccc(C(C)C)cc2)S(=O)(=O)c2c(C)nn(C)c2C)c1 | – | inactive: 7.09%
4 | Cc1ccc(C(=O)OCC(=O)Nc2c(Cl)cc(S(N)(=O)=O)cc2Cl)o1 | active: 70.8 µM | –
5 | Oc1c(CN2CCOCC2)cc(CN2CCOCC2)c(O)c1CN1CCOCC1 | inconclusive: 35.5 µM [inhibitor, partial curve, poor fit] | –
6 | O=c1[nH]c(/C=C\c2ccc(O)c(O)c2)nc(O)c1[N+](=O)[O-] | inconclusive: 39.8 µM [inhibitor, partial curve, poor fit] | –
7 | CCc1ccc(Nc2cc(=O)n(C3CCCCC3)c(=O)[nH]2)cc1 | inconclusive: 44.7 µM [inhibitor, single point] | –
8 | C/C(=N\Nc1ccc(Cl)c(C(=O)O)c1)c1ccc(Br)s1 | inconclusive: 44.7 µM [inhibitor, partial curve] | –
9 | O=C(O)c1cccnc1SCC(=O)N1CCCc2ccccc21 | inconclusive: 12.6 µM [inhibitor, partial curve, poor fit] | –
10 | COc1ccc(C(=O)C(C)Sc2nnc(C3CC3)n2C2CC2)cc1 (centres undefined) | – | inactive: -19.5%
11 | O=C(COc1ccccc1O)Nc1ccccc1Cl | inconclusive: 39.8 µM [inhibitor, single point] | –
12 | Clc1ccc(-n2nnc(-c3nccs3)n2)cc1Cl | inconclusive: 3.55 µM [inhibitor, full curve] | –
13 | Cc1ccc(CNC(=O)c2cc(-c3ccccc3C)nn2CC2CC(c3cccnc3)=NO2)cc1 (centres undefined) | inconclusive: 15.8 µM [inhibitor, single point] | –
14 | O=C1c2cccnc2C(Nc2cccc(F)c2)N1Cc1ccco1 (centres undefined) | – | inactive: -27.9%
15 | CCCn1nc(NS(=O)(=O)c2cccc3nonc23)c2cc3cccc(C)c3nc21 | inconclusive: 12.6 µM [inhibitor, partial curve, poor fit] | –
16 | CCS(=O)(=O)N1CCN=C1SCc1ccc(F)cc1 | – | inactive: 22.7%
17 | COc1cc(/C=N/NC(=O)c2ccncc2)cc(OC)c1OC | – | inactive: 10.5%
18 | Cc1ccc(/C=C2\SC(=S)N(CCCC(=O)Nc3cccc(C(=O)O)c3)C2=O)cc1 | inconclusive: 89.1 µM [inhibitor, partial curve] | –
19 | CCOc1ccc(-n2c(SCC(=O)NCc3ccco3)nc3c([nH]c4ccccc43)c2=O)cc1 | inconclusive: 56.2 µM [inhibitor, partial curve, poor fit] | –
20 | C[N+]1(CC(=O)c2ccc3c(c2)CCCC3)CCOCC1 | – | inactive: 34.6%
21 | O=C(N/N=C/c1ccoc1)c1ccccc1Br | inconclusive: 89.1 µM [inhibitor, single point] | –
22 | O=C1CC(N2CCOCC2)=NN1c1ccc([N+](=O)[O-])cc1 | inconclusive: 0.631 µM [inhibitor, full curve, poor fit] | –

Another view of some results above:
Row,SMILES,Potency,"activity, negative = inhibition"
8,C/C(=N\Nc1ccc(Cl)c(C(=O)O)c1)c1ccc(Br)s1,"inconclusive: 44.7 µM [inhibitor, partial curve]",–
9,O=C(O)c1cccnc1SCC(=O)N1CCCc2ccccc21,"inconclusive: 12.6 µM [inhibitor, partial curve, poor fit]",–

More results.

Row | SMILES | Potency | activity, negative = inhibition
23 | COc1cc(/C=C2\SC(=S)N(CCCCC(=O)O)C2=O)ccc1OS(=O)(=O)c1ccc(C)cc1 | inconclusive: 28.2 µM [inhibitor, full curve] | –
24 | CCOC(=O)N1CCN(c2ccc(C(=O)c3cccc(F)c3)cc2)CC1 | inconclusive: 100 µM [inhibitor, partial curve, poor fit] | –
25 | Cc1cc(Br)c(OCc2ccc(C(=O)N/N=C/c3ccc[nH]3)cc2)c(Br)c1 | inconclusive: 50.1 µM [inhibitor, partial curve, poor fit] | –
26 | Cc1ccc(N2C(=O)c3ccc(C(=O)N4CCN(c5ccccc5F)CC4)cc3C2=O)cc1 | inconclusive: 22.4 µM [inhibitor, single point] | –
27 | Cc1ccc(-c2nn(-c3ccccc3)cc2/C=C2\SC(=S)N(CC(=O)O)C2=O)cc1 | inconclusive: 31.6 µM [inhibitor, single point] | –
28 | C#CCOCCOCCOCCNc1nc(N2CCN(C(=O)CCCCCCCCCCNC(=O)Cn3cc(CCCCCN)nn3)CC2)nc(N2CCN(C(=O)CCCCCCCCCCNC(=O)[C@H]([C@@H](C)CC)n3cc(CCCCN=C(N)N)nn3)CC2)n1 | inconclusive: 11.2 µM [inhibitor, partial curve] | –
29 | CO/N=C(\C(=O)O)c1csc(NN=C(C)C)n1 | inconclusive: 17.8 µM [inhibitor, full curve, poor fit] | –
30 | Cc1ccc(C)c(N(CC(=O)NCCSCc2ccco2)S(C)(=O)=O)c1 | inconclusive: 3.16 µM [inhibitor, full curve, poor fit] | –
31 | CCOc1ccc(CNC(=O)c2cc3c(=O)n(Cc4cccs4)ccc3nc2C)cc1 | inconclusive: 89.1 µM [inhibitor, single point] | –
32 | COc1ccccc1-c1cc(C(F)(F)F)nc(S(=O)(=O)CCCC(=O)Nc2cc(C)ccc2O)n1 | inconclusive: 5.62 µM [inhibitor, partial curve, poor fit] | –
33 | COc1cc2ccccc2cc1C(=O)Nc1ccc(O)cc1 | – | inactive: 66.4%
34 | Cc1ccc(Cl)c(OC(=O)C2CSC3(C)CCC(=O)N23)c1 (centres undefined) | – | inactive: 25.1%
35 | COC(=O)CN1C(=O)C(C)(C)Oc2ccc(C(=O)Nc3ccccc3F)cc21 | inconclusive: 63.1 µM [inhibitor, partial curve, poor fit] | –
36 | COc1ccccc1NS(=O)(=O)c1cc(NC(=O)CNC(=O)c2ccc(C)s2)ccc1Cl | active: 79.4 µM | –
37 | Cc1ccc(NC(=O)c2ccc(-n3cccn3)c([N+](=O)[O-])c2)cc1 | – | inactive: -2.48%
38 | CC(=O)Nc1cccc(C(=O)Nc2ccccc2C(=O)O)c1 | inconclusive: 3.16 µM [inhibitor, single point] | –
39 | COc1ccc(C(=O)NC(=S)SCC(=O)O)cc1 | inconclusive: 25.1 µM [inhibitor, partial curve, poor fit] | –
40 | O=C(Nc1ccc(F)cc1)c1cccc(N2C(=O)c3ccccc3C2=O)c1 | inconclusive: 39.8 µM [inhibitor, partial curve] | –
41 | O=C(CCCN1C(=O)/C(=C/c2ccccc2Cl)SC1=S)NCCCN1CCOCC1 | inconclusive: 35.5 µM [inhibitor, single point] | –
42 | COc1ccc(C2=NN(c3nc(-c4ccc(CNC(C)=O)cc4)cs3)C(c3ccco3)C2)cc1 (centres undefined) | inconclusive: 28.2 µM [inhibitor, single point] | –
43 | CCc1nnc(NC(=O)C2CC(=O)N(CCc3ccc(F)cc3)C2)s1 (centres undefined) | inconclusive: 28.2 µM [inhibitor, partial curve, poor fit] | –
44 | CC(=O)[C@H]1[C@H](CCc2ccccc2)NC(=O)N(Cc2ccccc2)[C@@H]1C | inconclusive: 11.2 µM [inhibitor, partial curve, poor fit] | –

Row | SMILES | Potency | activity, negative = inhibition
45 | COc1ccc(C2c3[nH]c4ccccc4c3CCN2CCCn2cccn2)cc1C (centres undefined) | inconclusive: 89.1 µM [inhibitor, single point] | –
46 | COc1ccc2nc(NC(=O)c3ccoc3C)sc2c1 | – | inactive: -9.67% [at 58.9 µM]
47 | Cc1ccc(Cn2cnc3c(oc4ccccc43)c2=O)cc1 | – | inactive: 13.8%
48 | CSc1ccccc1NC(=O)CCc1ccccc1 | inconclusive: 89.1 µM [inhibitor, partial curve, poor fit] | –
49 | O=C1CSC(=S)N1c1cccc(Cl)c1 | inconclusive: 5.01 µM [inhibitor, partial curve, poor fit] | –
50 | Cc1c(Cl)cccc1Nc1nc(N)nc(CSc2nc3ccccc3s2)n1 | inconclusive: 56.2 µM [inhibitor, partial curve, poor fit] | –
51 | COC(=O)/C=C1\S/C(=N\N=C\CC(=O)OC)NC1=O | active: 17.8 µM | –
52 | Cc1cc(S(=O)(=O)N2CCOCC2)ccc1OCC(=O)Nc1ccc(F)cc1F | – | inactive: -23.7%
53 | COc1ccc(C)cc1NC(=O)c1ccc(NS(=O)(=O)c2cccs2)cc1 | inconclusive: 79.4 µM [inhibitor, partial curve, poor fit] | –
54 | CCN(CC)C(=S)NC(=O)c1cc(OC)c(OC)c(OC)c1 | inconclusive: 89.1 µM [inhibitor, single point] | –
55 | COC1(OC)C=CC(=O)C=C1NC(=O)c1ccccc1OC(C)=O | active: 10 µM | –
56 | CCCCN(CC)S(=O)(=O)c1ccc(C(=O)Nc2nnc(COC)o2)cc1 | inconclusive: 3.16 µM [inhibitor, partial curve, poor fit] | –
57 | CCc1ccc(Nc2n[n+](C)c(-c3ccncc3)s2)cc1 | inconclusive: 10 µM [inhibitor, partial curve, poor fit] | –
58 | O=C(O)c1ccc(Br)cn1 | inconclusive: 31.6 µM [inhibitor, full curve, poor fit] | –
59 | CCCOC(=O)c1c(NC(=O)C2c3ccccc3Oc3ccccc32)sc2c1CCCC2 | inconclusive: 50.1 µM [inhibitor, full curve, poor fit] | –
60 | COc1ccccc1CNC(=O)C1CC2Cn3c(nc4cc(Cl)c(Cl)cc43)C2N1C (centres undefined) | – | inactive: -27.5%
61 | Cc1cc(CNC(=O)c2cccc3c2C(=O)c2ccc(-c4ccc(F)cc4OCc4ccccc4)cc2S3(=O)=O)c(C(F)(F)F)o1 | active: 39.8 µM | –
62 | COCCNC(=O)c1cnn2c(C(F)(F)F)cc(-c3ccc(C)cc3)nc12 | – | inactive: 0.868%
63 | O=C(Nc1ccc(C(=O)N2CCCC2)cc1)C1CCCCC1 | inconclusive: 89.1 µM [inhibitor, single point] | –
64 | COC(=O)c1ccc(CSc2nc3sc4c(c3c(=O)n2C)CCCC4)o1 | inconclusive: 56.2 µM [inhibitor, partial curve, poor fit] | –
